According to PubChem BioAssay AID2662 (National Center for Advancing Translational Sciences (NCATS), 2010):
The whole screen tested about 290,000 compounds, of which about 110 (0.038%) were called active. Inconclusive means that the source gave no clear call. Such entries were picked first, then a sample of the others. The call rests on the fitted dose curve; in most records, active means well fitted inhibition curve with a large enough effect in the polarisation, with a control signal flat (not every such curve was filed as active); inconclusive means small, poorly fitted or top-dose-only effect, or effect the other way, or a change in a side signal; inactive means no such curve, though single readings can be large or run the other way; the % refers to the polarisation. A potency beside an inconclusive call is a rough fit, not a confirmed value. A note “side channel” means that the fit belongs to a control or component signal, not to the main read-out.

Chains of the proteins cited; added tags and fusions are not shown.
UniProt Q03164, whole entry, looked up: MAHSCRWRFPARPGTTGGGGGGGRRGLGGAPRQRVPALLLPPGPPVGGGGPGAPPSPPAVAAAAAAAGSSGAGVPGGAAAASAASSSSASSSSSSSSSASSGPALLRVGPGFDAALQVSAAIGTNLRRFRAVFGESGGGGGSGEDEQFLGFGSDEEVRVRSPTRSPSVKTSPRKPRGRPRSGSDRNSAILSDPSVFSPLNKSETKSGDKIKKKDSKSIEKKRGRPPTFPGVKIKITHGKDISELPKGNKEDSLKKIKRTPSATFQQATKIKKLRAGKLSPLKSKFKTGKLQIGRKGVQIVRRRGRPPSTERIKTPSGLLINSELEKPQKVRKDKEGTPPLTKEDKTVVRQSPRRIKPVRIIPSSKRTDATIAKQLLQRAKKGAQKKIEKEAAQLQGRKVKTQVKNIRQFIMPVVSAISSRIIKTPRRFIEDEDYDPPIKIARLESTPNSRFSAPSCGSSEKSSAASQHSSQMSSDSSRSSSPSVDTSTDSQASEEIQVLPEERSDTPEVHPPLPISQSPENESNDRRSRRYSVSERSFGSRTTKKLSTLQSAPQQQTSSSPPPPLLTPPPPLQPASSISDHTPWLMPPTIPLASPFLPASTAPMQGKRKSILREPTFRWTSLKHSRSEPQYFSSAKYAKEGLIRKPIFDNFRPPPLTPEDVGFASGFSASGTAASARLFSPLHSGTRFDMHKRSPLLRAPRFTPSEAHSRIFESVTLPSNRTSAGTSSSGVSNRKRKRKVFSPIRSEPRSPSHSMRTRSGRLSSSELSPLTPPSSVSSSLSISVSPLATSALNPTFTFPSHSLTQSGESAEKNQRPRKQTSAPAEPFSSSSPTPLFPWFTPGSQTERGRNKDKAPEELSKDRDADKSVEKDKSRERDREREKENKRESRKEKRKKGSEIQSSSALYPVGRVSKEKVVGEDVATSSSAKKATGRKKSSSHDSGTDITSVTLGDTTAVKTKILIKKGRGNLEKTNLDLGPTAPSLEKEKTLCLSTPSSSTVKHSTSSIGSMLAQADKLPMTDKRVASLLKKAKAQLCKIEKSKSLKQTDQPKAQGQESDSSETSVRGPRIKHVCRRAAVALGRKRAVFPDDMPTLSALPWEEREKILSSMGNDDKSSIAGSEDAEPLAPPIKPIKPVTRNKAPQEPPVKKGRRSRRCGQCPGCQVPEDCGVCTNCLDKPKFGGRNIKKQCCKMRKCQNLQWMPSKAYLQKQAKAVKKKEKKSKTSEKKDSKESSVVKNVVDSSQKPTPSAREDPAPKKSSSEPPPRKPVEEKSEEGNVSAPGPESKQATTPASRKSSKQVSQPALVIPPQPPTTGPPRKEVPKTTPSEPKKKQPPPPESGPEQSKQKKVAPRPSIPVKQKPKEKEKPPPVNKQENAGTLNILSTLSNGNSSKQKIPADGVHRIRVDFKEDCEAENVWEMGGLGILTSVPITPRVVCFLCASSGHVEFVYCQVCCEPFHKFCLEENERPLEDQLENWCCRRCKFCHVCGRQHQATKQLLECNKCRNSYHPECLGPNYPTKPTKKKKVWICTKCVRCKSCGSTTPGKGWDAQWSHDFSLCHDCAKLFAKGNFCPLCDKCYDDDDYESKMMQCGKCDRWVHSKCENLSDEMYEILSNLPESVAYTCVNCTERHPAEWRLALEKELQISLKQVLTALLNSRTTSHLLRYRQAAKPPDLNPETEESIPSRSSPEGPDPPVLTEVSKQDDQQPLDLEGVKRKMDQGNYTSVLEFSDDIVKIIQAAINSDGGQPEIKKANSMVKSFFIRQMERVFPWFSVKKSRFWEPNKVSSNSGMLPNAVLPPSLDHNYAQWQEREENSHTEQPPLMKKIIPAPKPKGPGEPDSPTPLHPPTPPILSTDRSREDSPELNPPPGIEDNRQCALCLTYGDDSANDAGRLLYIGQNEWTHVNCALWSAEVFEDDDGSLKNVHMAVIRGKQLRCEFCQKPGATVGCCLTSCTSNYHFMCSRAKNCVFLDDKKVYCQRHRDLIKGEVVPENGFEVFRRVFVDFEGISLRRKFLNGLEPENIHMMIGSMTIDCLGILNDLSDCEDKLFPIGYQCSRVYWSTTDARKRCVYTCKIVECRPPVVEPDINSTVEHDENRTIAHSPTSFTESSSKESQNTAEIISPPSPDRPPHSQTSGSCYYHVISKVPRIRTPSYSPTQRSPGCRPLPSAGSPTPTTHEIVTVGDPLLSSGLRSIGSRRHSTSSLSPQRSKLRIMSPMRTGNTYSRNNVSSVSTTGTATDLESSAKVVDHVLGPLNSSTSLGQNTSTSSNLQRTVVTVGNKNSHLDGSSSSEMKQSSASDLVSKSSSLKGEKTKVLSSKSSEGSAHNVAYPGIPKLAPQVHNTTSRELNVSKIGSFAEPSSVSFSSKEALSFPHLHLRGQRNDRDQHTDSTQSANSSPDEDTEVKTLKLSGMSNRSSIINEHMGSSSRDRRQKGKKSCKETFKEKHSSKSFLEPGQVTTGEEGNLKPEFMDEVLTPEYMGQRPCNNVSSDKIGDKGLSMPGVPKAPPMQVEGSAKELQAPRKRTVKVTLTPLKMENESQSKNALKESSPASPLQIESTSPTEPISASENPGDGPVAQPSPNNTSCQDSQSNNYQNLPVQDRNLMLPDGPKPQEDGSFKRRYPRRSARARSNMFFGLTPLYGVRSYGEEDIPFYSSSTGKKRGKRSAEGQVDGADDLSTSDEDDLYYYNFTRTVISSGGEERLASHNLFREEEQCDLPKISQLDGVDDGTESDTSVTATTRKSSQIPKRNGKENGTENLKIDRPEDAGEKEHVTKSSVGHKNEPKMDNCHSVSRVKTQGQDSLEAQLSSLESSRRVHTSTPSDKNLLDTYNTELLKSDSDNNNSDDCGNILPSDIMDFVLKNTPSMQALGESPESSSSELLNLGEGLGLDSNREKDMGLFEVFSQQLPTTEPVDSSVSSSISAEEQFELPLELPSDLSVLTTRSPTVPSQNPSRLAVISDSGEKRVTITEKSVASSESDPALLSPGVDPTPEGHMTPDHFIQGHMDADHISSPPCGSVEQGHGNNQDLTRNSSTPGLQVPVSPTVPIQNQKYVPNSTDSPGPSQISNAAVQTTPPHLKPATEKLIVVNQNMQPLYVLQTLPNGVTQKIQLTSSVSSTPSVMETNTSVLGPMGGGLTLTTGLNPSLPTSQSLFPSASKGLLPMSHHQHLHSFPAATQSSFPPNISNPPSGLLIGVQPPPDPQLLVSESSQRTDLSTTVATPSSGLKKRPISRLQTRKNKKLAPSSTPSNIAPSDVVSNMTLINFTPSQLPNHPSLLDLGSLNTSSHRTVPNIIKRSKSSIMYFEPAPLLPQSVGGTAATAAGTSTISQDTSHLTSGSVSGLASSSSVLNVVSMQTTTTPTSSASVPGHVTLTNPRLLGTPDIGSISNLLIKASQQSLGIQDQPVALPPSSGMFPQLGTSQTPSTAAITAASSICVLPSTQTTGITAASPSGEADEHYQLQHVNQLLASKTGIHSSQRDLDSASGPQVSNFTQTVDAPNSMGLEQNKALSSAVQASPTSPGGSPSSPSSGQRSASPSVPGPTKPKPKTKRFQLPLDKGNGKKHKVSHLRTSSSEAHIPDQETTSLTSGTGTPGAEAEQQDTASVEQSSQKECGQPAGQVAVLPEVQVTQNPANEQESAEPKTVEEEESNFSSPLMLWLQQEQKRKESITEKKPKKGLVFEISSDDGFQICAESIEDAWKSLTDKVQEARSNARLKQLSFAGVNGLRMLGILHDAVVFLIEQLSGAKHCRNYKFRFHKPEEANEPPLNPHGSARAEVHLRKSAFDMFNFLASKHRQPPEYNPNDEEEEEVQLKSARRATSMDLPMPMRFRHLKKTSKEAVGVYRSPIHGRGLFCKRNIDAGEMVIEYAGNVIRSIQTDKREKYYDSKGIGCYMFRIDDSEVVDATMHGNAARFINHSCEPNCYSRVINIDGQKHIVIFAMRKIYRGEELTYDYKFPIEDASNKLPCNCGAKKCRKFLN

The compounds below were run against Histone-lysine N-methyltransferase 2A (Homo sapiens) (UniProt Q03164) (assay: qHTS Fluorescence Polarization Assay for Inhibitors of MLL CXXC domain - DNA interaction). Settings: MLL-CXXC / FITC-HOXA9 DNA fluorescence polarization; activity change, negative = inhibition: at 115 µM (top of the series).
Summary of the method: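 Purified MLL-CXXC (added from a 7 uM solution) was preincubated 5 min at ambient with pinned compounds in 50 mM Tris-HCl pH 7.5, 50 mM NaCl, 1 mM DTT, 0.05% BSA. Fluorescein-labeled HOX-A9 DNA (50 nM solution) followed, 30 min, then polarization read.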
Potency means the concentration at half of the fitted maximal effect.

| Compound | Potency | activity change, negative = inhibition |
| --- | --- | --- |
| Cn1c2c(c(=O)n(C)c1=O)NC1(N2)C(=O)Nc2ccccc21 (stereo not drawn) | inconclusive: 8.91 µM [inhibitor, single point] |  |
| O=C(Oc1ccc(C(=S)N2CCOCC2)cc1)c1ccccc1 | inactive |  |
| CCCCOc1ccc(C(=O)N/C(=C\c2cccc([N+](=O)[O-])c2)C(=O)OCc2ccco2)cc1 | inactive |  |
| Cc1ccc(C2OC34CCCCCC3C(C#N)(C(=N)O4)C2(C#N)C#N)cc1 (stereo not drawn) | active: 7.94 µM |  |
| O=C(C1=C[C@@H](c2ccc(C(F)(F)F)cc2)C[C@@H](OCc2ccc(CO)cc2)O1)N1CCOCC1 | inconclusive: 15.8 µM [inhibitor, partial curve] |  |
| Clc1ccccc1Cn1nnc2c(NCC3CC3)ncnc21 | inactive |  |
| CCCCN1/C(=C/c2ccc3ccccc3[n+]2CC)Sc2ccccc21 | inconclusive: 35.5 µM [fluorescent, side channel, partial curve] |  |
| O=C(NCC1CCCO1)c1nn2c(C(F)(F)F)cc(-c3ccc(Br)o3)nc2c1Br (stereo not drawn) | inconclusive: 50.1 µM [fluorescent, side channel, single point] |  |
| O=C(CSc1nc2ccccc2c(=O)n1Cc1ccco1)N1CCN(c2ccccc2)CC1 | inactive |  |
| Cc1ccc(Nc2nc(NCc3ccco3)c3ccccc3n2)cc1 | inconclusive: 39.8 µM [quencher, side channel, partial curve] |  |
| CCn1c(SCC(=O)c2ccc(O)c(O)c2)nnc1-c1ccccc1OC | inactive |  |
| O=c1cc(CN2CCN(c3ccccc3O)CC2)nc2sccn12 | inactive |  |
| CCOC(=O)/C(C#N)=C/c1ccc(SC)cc1 |  | inconclusive: 2.91% [phenotype inactive] |
| Cc1nc2ccc(NC(=O)N3CCSCC3)cc2nc1C | inactive |  |
| CCC(CNc1cc(OC)cc2cccnc12)NC1CCCCC1 (stereo not drawn) | inconclusive: 15.8 µM [inhibitor, single point] |  |
| CC1(C)Cc2c(sc(NC(=O)c3ccc(C(=O)c4ccccc4)cc3)c2C(N)=O)C(C)(C)N1 | inconclusive: 20 µM [quencher, side channel, partial curve] |  |
| CCOc1cc(/C=C2/C(=O)N(c3ccccc3)N=C2C)ccc1OC(=O)c1cccs1 | inconclusive: 35.5 µM [inhibitor, single point] |  |
| Cc1nnsc1C(=O)N/N=C/c1ccc2ccccc2c1O | inconclusive: 15.8 µM [fluorescent, side channel, partial curve] |  |
| COc1ccc(C(=O)N/N=C/c2ccc(OC)c(COc3ccc(F)cc3)c2)cc1 | inconclusive: 11.2 µM [fluorescent, side channel, single point] |  |
| Cc1ccc(C)c2[nH]c(=O)c(CCNC(=O)c3ccc(S(=O)(=O)N4CCOCC4)cc3)cc12 | inconclusive: 70.8 µM [quencher, side channel, single point] |  |
| O=C(Nc1ccccc1)Oc1cccc(Br)c1 | inconclusive: 7.08 µM [quencher, side channel, single point] |  |

| Compound | Potency | activity change, negative = inhibition |
| --- | --- | --- |
| C=CCSc1nnc(-c2ccc([N+](=O)[O-])cc2)o1 | inconclusive: 35.5 µM [fluorescent, side channel, partial curve] |  |
| COc1cc([N+](=O)[O-])ccc1NC(=S)N1CCOCC1 | inconclusive: 17.8 µM [fluorescent, side channel, full curve, poor fit] |  |
| CC(C)C(=O)NC(c1ccccc1)c1cc([N+](=O)[O-])c2cccnc2c1O (stereo not drawn) | inactive |  |
| COc1ccc(NC(=O)/C=C/c2cccc(Br)c2)cn1 | inconclusive: 39.8 µM [inhibitor, single point] |  |
| CC(=O)c1ccc(NC(=O)c2cc3nc4c(c(C(F)(F)F)n3n2)CCCC4)cc1 | inconclusive: 3.16 µM [fluorescent, side channel, full curve, poor fit] |  |
| COc1ccc(/C=C2\SC(=S)N(CCCC(=O)Nc3cc(C)on3)C2=O)cc1OC | inconclusive: 31.6 µM [fluorescent, side channel, partial curve] |  |
| O=C(NNC(=O)c1cc(O)c(O)c(O)c1)NC1CCCCC1 | inactive |  |
| CCn1c(SCc2cccc(F)c2)nnc1-c1ccncc1 | inconclusive: 1.26 µM [fluorescent, side channel, full curve, poor fit] |  |
| Cc1c(NC(=S)N/N=C\c2ccccc2O)c(=O)n(-c2ccccc2)n1C | inactive |  |
| COc1ccc(CCC(=O)N(C)CC(=O)Nc2ccc(N3CCOCC3)cc2)cc1 | inactive |  |
| COCCN1CC(CNC(=O)c2cc(COc3ccccc3SC)on2)CC1=O (stereo not drawn) | inconclusive: 63.1 µM [quencher, side channel, single point] |  |
| COc1cc(/C=C(/C#N)c2ccc(F)cc2)ccc1Oc1ccc([N+](=O)[O-])cn1 | inconclusive: 15.8 µM [fluorescent, side channel, partial curve] |  |
| Cc1cc(N2CCCC2)ccc1/C=C1/C(=O)N(C)C(=S)N1C | inconclusive: 7.94 µM [fluorescent, side channel, full curve] |  |
| Cc1ccc(O)c(N=Nc2ccccc2)n1 | inconclusive: 2.51 µM [quencher, side channel, full curve] |  |
| O=C(CSc1nnc(Cc2ccccc2)o1)Nc1ccccc1 | inconclusive: 89.1 µM [quencher, side channel, single point] |  |
| CC(=O)Oc1ccc(/C=N/NC2=NS(=O)(=O)c3ccccc32)cc1 | inconclusive: 35.5 µM [fluorescent, side channel, partial curve] |  |
| COC(=O)c1ccccc1NC(=O)CCS(=O)(=O)c1ccc(Br)cc1 | inconclusive: 39.8 µM [fluorescent, side channel, single point] |  |
| Cc1ccc(S(=O)(=O)NCc2ccc3c(c2)cc(C)n3C)cc1 | inactive |  |
| O=C(Nc1ccc(C2CC2(Cl)Cl)cc1)c1ccccc1Br (stereo not drawn) | inconclusive: 1.12 µM [fluorescent, side channel, full curve, poor fit] |  |
| Cc1cc(C)cc(OCc2nnc(SCC(=O)NC3CC3)n2C)c1 | inconclusive: 100 µM [fluorescent, side channel, partial curve, poor fit] |  |
| Cc1cccc(NC(=O)CSCC(=O)Nc2nnc(C3CC3)s2)c1 | inconclusive: 39.8 µM [fluorescent, side channel, single point] |  |

Three consecutive entries from above:

| Compound | Potency | activity change, negative = inhibition |
| --- | --- | --- |
| COC(=O)c1ccccc1NC(=O)CCS(=O)(=O)c1ccc(Br)cc1 | inconclusive: 39.8 µM [fluorescent, side channel, single point] |  |
| Cc1ccc(S(=O)(=O)NCc2ccc3c(c2)cc(C)n3C)cc1 | inactive |  |
| O=C(Nc1ccc(C2CC2(Cl)Cl)cc1)c1ccccc1Br (stereo not drawn) | inconclusive: 1.12 µM [fluorescent, side channel, full curve, poor fit] |  |

Additional structures:

| Compound | Potency | activity change, negative = inhibition |
| --- | --- | --- |
| COc1cc(/C=N/NC(=O)CCN2CCN(C)CC2)cc2c1OCO2 | inactive |  |
| Cn1c(CN2CCN(C(=O)c3ccccc3)CC2)nc2cc([N+](=O)[O-])ccc21 | inconclusive: 1.26 µM [fluorescent, side channel, partial curve, poor fit] |  |
| CNC(=O)CC(=O)Nc1ccccc1C(=O)O | inconclusive: 39.8 µM [inhibitor, single point] |  |
| Cc1c(N=C2N=C(NC(=O)c3ccc(F)cc3)c3ccccc32)c(=O)n(-c2ccccc2)n1C | inconclusive: 28.2 µM [fluorescent, side channel, partial curve] |  |
| Cn1cnc(S(=O)(=O)NCc2ccc(Br)cc2)c1 | inconclusive: 79.4 µM [fluorescent, side channel, single point] |  |
| COc1ccc(OC)c(NC2=NC3(CCCCC3)N=C(N)N2)c1 | inactive |  |
| CCCCN1C(=O)/C(=C/C=C2/CC(C)(C)CN2C)SC1=S | inconclusive: 25.1 µM [fluorescent, side channel, partial curve] |  |
| CC(C)(C)C(=O)Oc1ccc(S(=O)(=O)Nc2ccccc2C(=O)NCC(=O)O)cc1 | inactive |  |
| CCOC(=O)C(NC(=O)c1cccnc1)(Nc1cccc(C)n1)C(F)(F)F (stereo not drawn) | inactive |  |
| CCOC(=O)c1ccccc1NC(=O)CSc1ccc(-c2ccccn2)nn1 | inactive |  |
| O=C(NC(c1ccc(Cl)cc1)c1c(O)ccc2ccccc12)c1ccccc1 (stereo not drawn) | inconclusive: 25.1 µM [fluorescent, side channel, partial curve] |  |
| Cc1cc(C)c(S(=O)(=O)c2ccccc2)c(OC(=O)c2cc(F)c(F)cc2Cl)n1 | inconclusive: 15.8 µM [inhibitor, single point] |  |
| CCN1C(=O)C(CC(=O)Nc2ccc(F)cc2)N(Cc2ccco2)C1=S (stereo not drawn) | inconclusive: 10 µM [fluorescent, side channel, single point] |  |
| CCN(CC)Cc1nc2c(c(=O)[nH]1)C(CC)(CC)Cc1ccccc1-2 | inactive |  |
| CCOc1ccc(S(=O)(=O)N/N=C(\C)C2CCCCC2)cc1 | inconclusive: 31.6 µM [fluorescent, side channel, partial curve] |  |
| C[C@H]1COc2c(C3(N)CC3)c(F)cc3c(=O)c(C(=O)O)cn1c23 | inconclusive: 11.2 µM [fluorescent, side channel, full curve, poor fit] |  |
| Cc1c(C)c2ccc(OCC(=O)NC(Cc3ccc(Cl)cc3)C(=O)O)cc2oc1=O (stereo not drawn) | inconclusive: 31.6 µM [inhibitor, partial curve] |  |
| CCOc1ccc(/C=N/N2C(C)CCCC2C)cc1OC (stereo not drawn) | inconclusive: 25.1 µM [fluorescent, side channel, partial curve] |  |
| Cc1[nH]n(-c2ccccc2)c(=O)c1N=Nc1cccc(Cl)c1 | inconclusive: 35.5 µM [inhibitor, partial curve] |  |
| COc1ccc(C(=O)Nc2ccccc2N2CCCC2)cc1 | inconclusive: 39.8 µM [fluorescent, side channel, single point] |  |
| Cn1c(NCc2ccc(Cl)cc2)nc2ccccc21 | inconclusive: 14.1 µM [fluorescent, single point] |  |
